# Results from PubChem BioAssay AID493014 (National Center for Advancing Translational Sciences (NCATS), 2011).
# Screen size: about 340,000 compounds; about 170 (0.05%) were called active. Inconclusive results, whose numbers are uncertain, are shown with a selection of clear calls. The call rests on the fitted dose curve; in most records, active means well fitted inhibition curve with a large enough effect in the signal ratio, with a control signal flat (not every such curve was filed as active); inconclusive means small, poorly fitted or top-dose-only effect, or effect the other way, or a change in a side signal; inactive means flat fitted curve, though single readings scatter; the % refers to the signal ratio. A potency beside an inconclusive call is a rough fit, not a confirmed value.
# Assay: qHTS Assay to Find Inhibitors of Chronic Active B-Cell Receptor Signaling;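 on activity change, negative = inhibition: plate controls were basal doxycycline-induced cells for no effect and cells given 10 µM MG132 for full effect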
# Details: ABC-DLBCL IkBa-CBG/CBR reporter, luminescence ratio (green luciferase fused to IkBa over red control in TMD8 lymphoma cells), 4 h; activity change, negative = inhibition: at 46.1 µM (top of the series) unless noted
# Procedure, shortened: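 Cell line TMD8 (human ABC DLBCL), stably expressing tet-inducible CBG68-IkBa fusion and CBR; IMDM/0.5% FBS; cpd up to 46 uM; dox induction, 4 h, 37C/5% CO2; dual luminescence; green/red ratio; MG132 control.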
# Potency means the concentration at half of the fitted maximal effect.
Compound,"activity change, negative = inhibition",Potency
COC(=O)c1ccc2c(=O)n(CCCCCC(=O)NCc3ccc(OC)cc3)c(=O)[nH]c2c1,inconclusive: 7.31%,–
NC(=O)c1ccc[n+](CC(=O)c2ccc(Cl)c(Cl)c2)c1,inactive: 3.8%,–
CC(C)c1ccc(NC(=O)CN2C(=O)COc3ccc(S(=O)(=O)N4CCOCC4)cc32)cc1,inactive: 2.58%,–
CNC(=O)C1C2C=CC3(O2)C1C(=O)N(C1CC1)C3C(=O)NCc1ccc(OC)cc1 (stereo not given),inconclusive: 18%,–
CC(C)COc1ccc(CNC(=S)N/N=C/c2ccc([N+](=O)[O-])cc2)cc1,inconclusive: 15.4%,–
CN(CCOC(=O)/C=C/c1ccco1)Cc1ccccc1,–,"inconclusive: 5.62 µM [rising, single point]"
O=C1NCCN/C1=C\C(=O)c1cccc(Br)c1,–,"inconclusive: 15.8 µM [falling, single point]"
O=S(=O)(NCCc1csc2nc(-c3ccc(Cl)cc3)nn12)c1ccc2c(c1)OCCO2,inconclusive: 10.9%,–
COc1ccc(OC)c(CN2CCC(CNC(=O)Nc3cccc(Cl)c3)CC2)c1,inconclusive: -20.1%,–
CCCCC(=O)NC(Nc1nc(C2CC2)cs1)(C(=O)OCC)C(F)(F)F (stereo not given),inconclusive: -0.408%,–
COc1ccccc1NC(=O)c1ccccc1NC(=O)c1ccccc1C(=O)O,inactive: -22.1%,–
O=C(C(c1ccccc1)c1ccccc1)N1CCN(CCN2C(=O)c3cccc4cccc(c34)C2=O)CC1,–,"inconclusive: 1.46 µM [falling, partial curve, poor fit]"
Cc1ccc(SCC(=O)Nc2cccc(C)c2)cc1,–,"inconclusive: 35.5 µM [rising, single point]"
COc1cc(/C=C/C(=O)OCC(=O)N2CCC(Cc3ccccc3)CC2)ccc1O,inconclusive: -19.3%,–
C=CCn1c(C)cc(C(=O)COC(=O)/C=C/c2c(C)nn(C3CCS(=O)(=O)C3)c2Cl)c1C (stereo not given),inactive: -0.0474%,–
COc1cc(C(=O)N2CCCc3ccccc32)c([N+](=O)[O-])cc1OC,inactive: -0.0271%,–
O=C1c2ccsc2SCCN1Cc1cccc(Cl)c1,inconclusive: 12.5%,–
O=C1C=CC(=O)N1c1cccc(-c2ccccc2)c1,inconclusive: -9.8%,–
CC(=O)c1c(C)oc2ccc(NS(=O)(=O)c3cccs3)cc12,inconclusive: 0.155%,–
CCCc1nc2ccccc2c(C(=O)OCC(=O)Nc2cccc(S(=O)(=O)N3CCOCC3)c2)c1CC,inconclusive: 6.32%,–
O=C(NC1CCCCC1)N1CCCCCCC1,inconclusive: 6.46%,–
Cc1ccc(C(=O)N2CCN3C(=O)c4ccccc4C23c2ccc(Cl)cc2)cc1 (stereo not given),inconclusive: 25.5%,–
O=C(Cn1c(=O)oc2ccccc21)Nc1cccc(Cl)c1,–,"inconclusive: 12.6 µM [falling, partial curve]"
CCOc1ccc(N=C2SC(C(=O)Nc3ccccc3C#N)C(N)=C2C(=O)Nc2ccc(Cl)cc2)cc1 (stereo not given),inconclusive: 7.63%,–
CCN(CC)c1c([N+](=O)[O-])c(=O)n(C)c2ccccc12,–,"inconclusive: 35.5 µM [falling, single point]"
CC(C)(C)c1ccc(NC(=O)c2ccsc2)cc1,–,"inconclusive: 20 µM [falling, partial curve, poor fit]"
Cc1cc2nc(-c3ccc(SCC(=O)Nc4ccc(S(=O)(=O)NC5CC5)cc4)nc3)[nH]c2cc1C,inconclusive: -16%,–

# Among those listed so far, these have an NH in an aromatic ring.
Compound,"activity change, negative = inhibition",Potency
COC(=O)c1ccc2c(=O)n(CCCCCC(=O)NCc3ccc(OC)cc3)c(=O)[nH]c2c1,inconclusive: 7.31%,–
Cc1cc2nc(-c3ccc(SCC(=O)Nc4ccc(S(=O)(=O)NC5CC5)cc4)nc3)[nH]c2cc1C,inconclusive: -16%,–

# Additional records follow.

Compound,"activity change, negative = inhibition",Potency
CC1(C)CC(NS(=O)(=O)c2cccc3ccccc23)CC(C)(C)N1,inconclusive: 6.01%,–
N#Cc1cn(-c2ccccc2)nc1-c1ccccc1,inconclusive: 7.84%,–
Cc1ccc2[nH]c(=O)c(CN(C(=O)c3cccc([N+](=O)[O-])c3)C(C)(C)C)cc2c1,inconclusive: 2.74%,–
O=C(COc1ccc(Cl)cc1)NCc1ccc(F)cc1,inactive: 3.46%,–
CC1=NN(C(=O)c2c(Br)cnn2C)C(O)(C(F)(F)F)C1 (stereo not given),inconclusive: 23.5%,–
O=C(Nc1cccc(S(=O)(=O)N2CCCC2)c1)c1ccc(Cl)nc1,inconclusive: 2.79%,–
O=C(Nc1ccc(NC(=O)c2ccccc2F)cn1)c1ccco1,–,"inconclusive: 25.1 µM [falling, single point]"
CCOc1ccc(C(=O)NC(=S)Nc2cccc(S(=O)(=O)NC3=NCCC3)c2)cc1,–,"inconclusive: 17.8 µM [falling, partial curve]"
CCCc1[nH]nc2c1C(c1cc(OC)ccc1F)C(C#N)=C(N)O2 (stereo not given),–,"inconclusive: 20 µM [falling, single point]"
Cc1c(CCC(=O)NCCCCCC(=O)O)c(=O)oc2c(C)c3oc4c(c3cc12)CCCC4,inactive: -12.9%,–
COc1ccc(C(=O)COC(=O)c2sccc2C)cc1OC,inactive: -0.393%,–
CC(C)(C)c1ccc(S(=O)(=O)NCC(=O)N2CCCC2)cc1,inactive: 0.809%,–
COc1cc(C(=O)NCC(c2ccco2)N2CCc3ccccc32)cc(OC)c1OC (stereo not given),inconclusive: -0.79%,–
O=S(=O)(c1ccc(Oc2ccc(Br)cc2)cc1)N1CCOCC1,inactive: 5.69%,–
Cc1c(/C=N/n2cnnc2)c2ccccc2n1CCOc1ccccc1,–,"inconclusive: 22.4 µM [falling, single point]"
O=C1c2ccccc2NC(c2ccccn2)N1c1ccc(Cl)cc1 (stereo not given),inactive: -0.114%,–
O=C(Nc1ccc(Cl)cc1C(F)(F)F)C(Sc1nnc(-c2cccs2)o1)c1ccccc1 (stereo not given),–,"inconclusive: 20.6 µM [falling, partial curve]"
CC#C[C@]1(O)CC[C@H]2[C@@H]3CCC4=CC(=O)CCC4=C3[C@@H](c3ccc(N(C)C)cc3)C[C@@]21C,inconclusive: 17.9%,–
Cc1ccc2c(c1)sc(-c1ccc(N(C)C)cc1)[n+]2C,inconclusive: -15.2%,–
CCc1nnc(NC(=O)CSc2nnc(CNc3cccc(Cl)c3)n2CC)s1,inconclusive: -13.2%,–
CCOc1ccc(-c2nc(CCl)cs2)cc1OC,inactive: -2.96%,–
COC(=O)[C@]1(C)N[C@H](CN(C)S(=O)(=O)c2ccc(F)cc2)[C@@H]2C(=O)N(C)C(=O)[C@@H]21,inconclusive: -0.325%,–
CN(C)c1cc(-c2ccccc2)nc(N)n1,inactive: 11.6%,–
O=C(NCCc1ccccc1)c1c[nH]c2c(F)cccc2c1=O,–,"inconclusive: 22.4 µM [falling, partial curve]"
COC(=O)c1ccc(C(=O)NC2CCSc3ccccc32)cc1 (stereo not given),inconclusive: -15.2%,–
C=C1C(=O)O[C@@]23[C@H]1CC[C@@H](C)[C@@H]2CC[C@@]1(C)O[C@@H]31,–,"inconclusive: 14.6 µM [falling, partial curve]"
Cc1ccccc1NC(=S)NCc1ccc2c(c1)cc(C)n2C,–,"inconclusive: 2.06 µM [falling, full curve, poor fit]"

# Reformatted with tabs: two of the compounds above.
Compound	activity change, negative = inhibition	Potency
O=C(Nc1cccc(S(=O)(=O)N2CCCC2)c1)c1ccc(Cl)nc1	inconclusive: 2.79%	–
CCc1nnc(NC(=O)CSc2nnc(CNc3cccc(Cl)c3)n2CC)s1	inconclusive: -13.2%	–

# Next part

Compound,"activity change, negative = inhibition",Potency
O=c1c2ccccc2nc(-c2ccccc2)n1CCCn1ccnc1,inconclusive: 5.01%,–
COc1ccc(/C=N\NC(=O)c2ccc(-c3ccccc3)cc2)cc1COC(C)=O,inconclusive: -3.9%,–
O=C(NN=C1CCCCCCC1)c1ccc2ccccc2n1,inconclusive: -3.33%,–
O=C(O)C1CCCCC1C(=O)NCCc1ccc(Cl)cc1 (stereo not given),inactive: 4.21%,–
CCOc1ccccc1NC(=O)COc1coc(CN2CCCc3ccccc32)cc1=O,inconclusive: 319%,–
COC(=O)C(Cc1ccc(OC(=O)c2ccc(C(F)(F)F)cc2)cc1)N1Cc2ccccc2C1=O (stereo not given),inactive: 1.64%,–
CSCC[C@H](NC(=O)C1CCN(S(=O)(=O)c2ccc(C)cc2C)CC1)c1nc2ccccc2[nH]1,inconclusive: -2.26%,–
CCCn1c(SCC(=O)Nc2cccc(S(=O)(=O)N(C)C)c2)nc2ccccc2c1=O,inconclusive: 23.6%,–
CCOC(=O)C1CCCCN1C(=O)CCc1c(C)nc2ncnn2c1C (stereo not given),–,"inconclusive: 22.4 µM [falling, partial curve]"
O=C(N/N=C/c1ccc(O)c(O)c1)NC12CC3CC(CC(C3)C1)C2,inconclusive: -13%,–
Cc1cc(C(=O)CN2C(=O)C3CC=CCC3C2=O)c(C)n1-c1ccccc1 (stereo not given),inactive: -0.291%,–
CCOC(=O)[C@@H]1[C@H]2COc3ccccc3[C@H]2N2C(=O)N(c3cccc(C)c3)C(=O)[C@]12C,inactive: 0.0944%,–
O=C(COC(=O)CC1CCCC1)Nc1ccc(Cl)cn1,inconclusive: 3.37%,–
COCCNC(=O)c1ccccc1NC(=O)CCSc1ccccc1,–,"inconclusive: 25.1 µM [falling, single point]"
O=C(CNC(=O)c1ccc(F)cc1)N/N=C/c1ccc(O)c([N+](=O)[O-])c1,inconclusive: 0.0367%,–
Cc1ccc(C(=O)OCC(=O)NCc2cc(C)c(O)c(C)c2)cc1S(=O)(=O)N1CCCCC1,inconclusive: -0.721%,–
CC(C)n1c(-c2ccco2)csc1=Nc1cccnc1,inactive: -17.8%,–
Cc1cccc(N2CCN(C(=S)Nc3ccc4nc5n(c(=O)c4c3)CCCCC5)CC2)c1C,inactive: -0.21%,–
CC(=O)OCC(=O)C1=CCC2C3CCC4=CC(=O)C=CC4(C)C3(F)C(OC(C)=O)CC12C (stereo not given),–,"inconclusive: 14.1 µM [falling, partial curve, poor fit]"
CCOC(=O)c1cccc(NC(=O)CN2CCN(c3ccc(OC)cc3)CC2)c1,inconclusive: 0.459%,–
COc1cc(OC)c(-c2nc3ccccc3s2)cc1OC,inconclusive: 4.35%,–
CCOc1ccc(S(=O)(=O)N2CCCC(C(=O)NCC3CCCO3)C2)cc1 (stereo not given),inconclusive: -4.23%,–
Cc1ccc(C(=O)N(CCCN(C)C)c2nc3ccc(Cl)cc3s2)cc1C,inconclusive: 8.73%,–
O=C(NC1CCCCC1)C(c1ccc2ncccc2c1)N(Cc1ccc2c(c1)OCO2)C(=O)c1cccs1 (stereo not given),inconclusive: -10.2%,–
COc1ccccc1C(=O)Nc1ccc(C(=O)/C=C/c2cccs2)cc1,inactive: -10.8%,–
Cc1cc(/C=C(/C#N)c2nc3ccccc3[nH]2)c(C)n1-c1cc(C(=O)O)cc(C(=O)O)c1,inactive: 0.559%,–
